Measurements as given in the supplement of paper PMC12823440, “Inhibitors supercharge kinase turnover through native proteolytic circuits” (Nature, 2025).
Structures can show the parent of a compound that is named as a salt. The list shows a part of the results. The calls rarely recur for the same compound in another form.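 Kinases, fused to nanoluciferase, were expressed in K562 cells; luminescence was measured every 4 h from 2 to 18 h as percent of control (DMSO = 100%, positive control = 0%). A time point is decreased if signal falls significantly (2 sigma). Hits were called by the authors by a rule that is not shown; the count of time points alone does not decide it.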

By UniProt entry, the sequences of proteins in these tests, tags left out. Where a name states a change or a piece, a line headed by the entry shows the natural chain unless it says otherwise.
UniProt P00519, whole entry: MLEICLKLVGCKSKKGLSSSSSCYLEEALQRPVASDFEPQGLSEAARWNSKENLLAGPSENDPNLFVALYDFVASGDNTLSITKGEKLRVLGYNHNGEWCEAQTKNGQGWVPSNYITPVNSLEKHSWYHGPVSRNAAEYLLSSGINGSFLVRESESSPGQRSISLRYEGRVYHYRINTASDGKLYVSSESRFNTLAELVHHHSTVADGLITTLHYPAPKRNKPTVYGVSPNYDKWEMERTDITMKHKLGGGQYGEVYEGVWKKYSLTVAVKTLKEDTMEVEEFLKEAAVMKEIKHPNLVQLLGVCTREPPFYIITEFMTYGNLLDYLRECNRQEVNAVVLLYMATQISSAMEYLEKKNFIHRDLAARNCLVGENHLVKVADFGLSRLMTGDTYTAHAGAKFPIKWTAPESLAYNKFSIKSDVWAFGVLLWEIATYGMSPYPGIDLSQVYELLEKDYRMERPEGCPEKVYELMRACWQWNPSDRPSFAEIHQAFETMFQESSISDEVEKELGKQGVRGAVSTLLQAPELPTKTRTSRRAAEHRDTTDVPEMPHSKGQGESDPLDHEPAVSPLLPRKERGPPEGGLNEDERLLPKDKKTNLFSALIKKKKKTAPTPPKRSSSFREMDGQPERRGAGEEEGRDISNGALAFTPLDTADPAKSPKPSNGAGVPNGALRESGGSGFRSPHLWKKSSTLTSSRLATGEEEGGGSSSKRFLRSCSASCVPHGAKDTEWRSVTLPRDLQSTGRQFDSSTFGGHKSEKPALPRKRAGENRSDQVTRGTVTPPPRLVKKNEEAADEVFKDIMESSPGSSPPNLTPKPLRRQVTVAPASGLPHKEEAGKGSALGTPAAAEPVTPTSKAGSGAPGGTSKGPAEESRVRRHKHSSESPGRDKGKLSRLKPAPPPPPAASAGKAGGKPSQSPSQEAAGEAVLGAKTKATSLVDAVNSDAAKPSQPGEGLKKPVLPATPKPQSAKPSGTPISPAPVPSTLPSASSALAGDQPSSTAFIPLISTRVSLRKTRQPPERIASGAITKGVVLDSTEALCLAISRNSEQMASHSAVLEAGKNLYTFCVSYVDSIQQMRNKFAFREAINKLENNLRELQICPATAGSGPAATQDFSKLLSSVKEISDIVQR
UniProt P31749: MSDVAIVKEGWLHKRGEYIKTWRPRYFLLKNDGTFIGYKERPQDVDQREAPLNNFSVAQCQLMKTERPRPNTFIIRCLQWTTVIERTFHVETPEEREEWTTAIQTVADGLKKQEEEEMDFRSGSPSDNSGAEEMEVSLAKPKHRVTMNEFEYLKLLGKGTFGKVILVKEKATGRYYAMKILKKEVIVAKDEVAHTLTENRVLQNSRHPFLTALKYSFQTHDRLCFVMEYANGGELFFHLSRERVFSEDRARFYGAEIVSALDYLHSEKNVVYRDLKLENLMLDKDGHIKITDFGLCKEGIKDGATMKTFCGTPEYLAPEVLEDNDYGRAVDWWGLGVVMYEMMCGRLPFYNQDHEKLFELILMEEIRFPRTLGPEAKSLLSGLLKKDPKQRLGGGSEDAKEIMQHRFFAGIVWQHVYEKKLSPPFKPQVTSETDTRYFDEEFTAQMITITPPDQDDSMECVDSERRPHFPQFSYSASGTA
UniProt O14965: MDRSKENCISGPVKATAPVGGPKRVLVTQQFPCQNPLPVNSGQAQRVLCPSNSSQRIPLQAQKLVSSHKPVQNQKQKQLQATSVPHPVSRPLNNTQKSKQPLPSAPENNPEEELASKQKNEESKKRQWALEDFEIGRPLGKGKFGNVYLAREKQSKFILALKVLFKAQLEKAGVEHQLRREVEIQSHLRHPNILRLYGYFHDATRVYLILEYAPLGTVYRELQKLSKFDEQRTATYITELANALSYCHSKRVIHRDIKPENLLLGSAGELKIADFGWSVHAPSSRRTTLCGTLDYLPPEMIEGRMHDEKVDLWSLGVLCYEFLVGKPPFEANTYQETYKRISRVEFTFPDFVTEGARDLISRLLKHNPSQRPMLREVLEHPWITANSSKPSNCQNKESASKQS
UniProt Q96GD4, whole entry: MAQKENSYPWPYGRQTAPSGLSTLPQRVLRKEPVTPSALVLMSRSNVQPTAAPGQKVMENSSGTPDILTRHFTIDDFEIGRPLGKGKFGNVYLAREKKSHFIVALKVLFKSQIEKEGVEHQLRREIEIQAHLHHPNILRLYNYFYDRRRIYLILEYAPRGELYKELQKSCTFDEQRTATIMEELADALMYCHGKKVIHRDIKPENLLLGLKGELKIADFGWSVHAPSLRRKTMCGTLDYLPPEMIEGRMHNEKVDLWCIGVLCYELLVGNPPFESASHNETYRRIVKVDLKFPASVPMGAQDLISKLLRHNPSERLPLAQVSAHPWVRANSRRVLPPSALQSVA
UniProt Q9UQB9: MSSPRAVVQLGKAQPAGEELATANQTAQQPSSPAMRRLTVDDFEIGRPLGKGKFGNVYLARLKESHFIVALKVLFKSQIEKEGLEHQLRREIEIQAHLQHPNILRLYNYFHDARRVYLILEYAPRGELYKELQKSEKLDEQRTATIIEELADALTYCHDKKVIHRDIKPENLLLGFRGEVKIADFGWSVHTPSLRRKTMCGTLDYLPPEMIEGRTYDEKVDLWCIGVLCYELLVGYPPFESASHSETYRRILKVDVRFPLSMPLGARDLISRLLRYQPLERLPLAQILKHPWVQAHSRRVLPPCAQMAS
UniProt P51451: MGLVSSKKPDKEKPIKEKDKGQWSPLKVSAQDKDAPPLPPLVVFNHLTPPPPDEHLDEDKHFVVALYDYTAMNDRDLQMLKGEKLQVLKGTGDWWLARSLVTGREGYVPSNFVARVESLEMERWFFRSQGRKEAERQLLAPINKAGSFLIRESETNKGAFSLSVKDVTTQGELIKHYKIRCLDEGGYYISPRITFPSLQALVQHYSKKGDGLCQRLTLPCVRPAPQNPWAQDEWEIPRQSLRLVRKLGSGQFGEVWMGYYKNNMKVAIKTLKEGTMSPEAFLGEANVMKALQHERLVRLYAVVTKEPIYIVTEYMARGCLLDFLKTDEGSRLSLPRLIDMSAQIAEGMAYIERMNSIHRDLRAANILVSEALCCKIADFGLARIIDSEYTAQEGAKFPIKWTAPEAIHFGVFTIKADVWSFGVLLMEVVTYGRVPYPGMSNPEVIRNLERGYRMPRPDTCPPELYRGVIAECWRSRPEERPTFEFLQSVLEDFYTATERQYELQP
UniProt P51813: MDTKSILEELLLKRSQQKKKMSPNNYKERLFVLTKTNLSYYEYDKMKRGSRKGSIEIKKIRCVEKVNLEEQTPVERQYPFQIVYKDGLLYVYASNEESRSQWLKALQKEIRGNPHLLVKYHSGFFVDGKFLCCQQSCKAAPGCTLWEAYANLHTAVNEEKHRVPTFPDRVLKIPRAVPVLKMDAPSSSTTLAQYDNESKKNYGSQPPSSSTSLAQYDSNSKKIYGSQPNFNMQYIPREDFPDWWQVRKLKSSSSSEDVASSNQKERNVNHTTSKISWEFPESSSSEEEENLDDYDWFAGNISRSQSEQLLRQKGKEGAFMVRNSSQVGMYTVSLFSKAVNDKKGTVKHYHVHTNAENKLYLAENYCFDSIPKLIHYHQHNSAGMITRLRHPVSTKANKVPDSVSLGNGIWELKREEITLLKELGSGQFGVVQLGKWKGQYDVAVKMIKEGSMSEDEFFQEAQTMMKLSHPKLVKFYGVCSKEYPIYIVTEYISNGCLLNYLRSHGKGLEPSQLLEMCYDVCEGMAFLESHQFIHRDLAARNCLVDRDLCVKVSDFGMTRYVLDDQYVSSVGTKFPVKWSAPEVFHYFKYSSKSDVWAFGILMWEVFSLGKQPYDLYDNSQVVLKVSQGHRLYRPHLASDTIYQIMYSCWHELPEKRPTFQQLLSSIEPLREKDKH
UniProt P15056, whole entry, looked up: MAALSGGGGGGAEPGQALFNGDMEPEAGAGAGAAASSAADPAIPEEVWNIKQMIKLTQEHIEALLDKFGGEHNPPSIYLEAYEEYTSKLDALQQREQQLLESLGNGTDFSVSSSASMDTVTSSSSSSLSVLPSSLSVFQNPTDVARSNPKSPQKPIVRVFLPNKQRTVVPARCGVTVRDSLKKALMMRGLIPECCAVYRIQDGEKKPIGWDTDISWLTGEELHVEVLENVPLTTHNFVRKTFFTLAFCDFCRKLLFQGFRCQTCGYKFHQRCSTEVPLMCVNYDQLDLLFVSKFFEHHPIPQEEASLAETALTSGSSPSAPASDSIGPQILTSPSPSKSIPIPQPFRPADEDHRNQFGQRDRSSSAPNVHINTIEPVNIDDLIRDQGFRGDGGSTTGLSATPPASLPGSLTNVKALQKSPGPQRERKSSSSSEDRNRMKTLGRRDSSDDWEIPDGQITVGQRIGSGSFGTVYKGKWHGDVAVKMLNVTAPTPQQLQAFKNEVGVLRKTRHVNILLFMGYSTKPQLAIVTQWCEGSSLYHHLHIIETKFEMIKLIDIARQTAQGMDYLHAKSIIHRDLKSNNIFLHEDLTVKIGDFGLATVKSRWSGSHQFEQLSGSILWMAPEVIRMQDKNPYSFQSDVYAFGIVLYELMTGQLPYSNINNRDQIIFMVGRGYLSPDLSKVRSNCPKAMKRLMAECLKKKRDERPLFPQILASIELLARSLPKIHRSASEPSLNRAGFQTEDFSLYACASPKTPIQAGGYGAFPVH
UniProt Q9UQM7, whole entry: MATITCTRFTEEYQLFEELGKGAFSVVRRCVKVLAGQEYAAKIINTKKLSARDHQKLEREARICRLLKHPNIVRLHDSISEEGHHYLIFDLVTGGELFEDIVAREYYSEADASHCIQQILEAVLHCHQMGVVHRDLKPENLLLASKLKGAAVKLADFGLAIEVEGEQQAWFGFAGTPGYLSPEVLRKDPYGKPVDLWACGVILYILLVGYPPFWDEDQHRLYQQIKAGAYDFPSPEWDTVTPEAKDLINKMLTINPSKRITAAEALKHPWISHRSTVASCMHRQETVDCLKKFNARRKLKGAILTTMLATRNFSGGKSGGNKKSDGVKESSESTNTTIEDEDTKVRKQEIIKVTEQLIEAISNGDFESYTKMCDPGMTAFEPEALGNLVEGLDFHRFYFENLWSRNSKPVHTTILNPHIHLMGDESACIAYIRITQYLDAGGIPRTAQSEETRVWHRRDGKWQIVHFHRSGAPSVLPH
UniProt Q13555: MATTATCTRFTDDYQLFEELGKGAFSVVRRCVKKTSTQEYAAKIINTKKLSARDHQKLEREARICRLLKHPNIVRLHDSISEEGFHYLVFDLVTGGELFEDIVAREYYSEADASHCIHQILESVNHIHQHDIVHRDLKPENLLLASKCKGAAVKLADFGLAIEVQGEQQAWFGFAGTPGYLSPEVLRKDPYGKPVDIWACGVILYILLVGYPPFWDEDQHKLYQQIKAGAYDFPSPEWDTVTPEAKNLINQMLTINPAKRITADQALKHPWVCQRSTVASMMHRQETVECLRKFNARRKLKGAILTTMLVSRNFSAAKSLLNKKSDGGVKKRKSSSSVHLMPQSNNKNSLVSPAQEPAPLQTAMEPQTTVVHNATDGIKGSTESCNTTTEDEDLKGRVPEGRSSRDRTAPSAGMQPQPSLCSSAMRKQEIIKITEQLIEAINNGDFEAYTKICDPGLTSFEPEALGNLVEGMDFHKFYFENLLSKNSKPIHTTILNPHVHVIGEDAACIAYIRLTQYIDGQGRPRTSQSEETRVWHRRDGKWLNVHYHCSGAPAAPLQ
UniProt Q00526: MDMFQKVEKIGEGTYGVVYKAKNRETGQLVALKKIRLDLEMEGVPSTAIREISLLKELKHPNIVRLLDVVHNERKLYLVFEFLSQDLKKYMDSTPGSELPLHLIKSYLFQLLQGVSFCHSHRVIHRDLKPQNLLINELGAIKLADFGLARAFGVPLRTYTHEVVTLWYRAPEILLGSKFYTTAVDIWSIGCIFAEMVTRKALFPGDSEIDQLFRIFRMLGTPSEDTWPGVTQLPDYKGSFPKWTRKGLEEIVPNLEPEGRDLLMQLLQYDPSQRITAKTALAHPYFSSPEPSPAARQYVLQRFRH
UniProt Q00535, whole entry, looked up: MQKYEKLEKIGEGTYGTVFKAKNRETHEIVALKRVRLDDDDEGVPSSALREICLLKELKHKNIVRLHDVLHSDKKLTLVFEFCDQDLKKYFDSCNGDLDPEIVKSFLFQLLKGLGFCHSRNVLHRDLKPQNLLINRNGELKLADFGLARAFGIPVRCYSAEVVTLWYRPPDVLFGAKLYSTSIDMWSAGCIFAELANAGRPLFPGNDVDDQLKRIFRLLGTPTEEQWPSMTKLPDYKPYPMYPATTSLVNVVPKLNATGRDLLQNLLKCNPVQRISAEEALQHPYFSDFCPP
UniProt Q00534, whole entry: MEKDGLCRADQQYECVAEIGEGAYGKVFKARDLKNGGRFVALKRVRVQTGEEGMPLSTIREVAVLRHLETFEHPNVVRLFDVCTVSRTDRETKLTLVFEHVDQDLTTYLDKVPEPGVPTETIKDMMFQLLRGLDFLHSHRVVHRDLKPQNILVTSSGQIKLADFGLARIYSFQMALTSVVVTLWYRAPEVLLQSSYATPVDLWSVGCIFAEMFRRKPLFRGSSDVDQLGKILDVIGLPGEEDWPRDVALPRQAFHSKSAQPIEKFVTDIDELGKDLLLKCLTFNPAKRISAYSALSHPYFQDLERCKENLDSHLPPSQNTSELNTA

How the values were obtained:
Assay in all cases: kinase-Nluc reporter destabilization hit call (1 = scored as downregulated) (binary); higher = compound decreases kinase abundance
Conditions in all cases: K562; 2-18 h
ABL1 = ABL1 (UniProt P00519)
AKT1 = AKT1 (UniProt P31749)
ALK = ALK (UniProt Q9UM73)
ARAF = ARAF (UniProt P10398)
AURKA = AURKA (UniProt O14965)
AURKB = AURKB (UniProt Q96GD4)
AURKC = AURKC (UniProt Q9UQB9)
BLK = BLK (UniProt P51451)
BMX = BMX (UniProt P51813)
BRAF = BRAF (UniProt P15056)
BRAF_V600E = test system: BRAF_V600E
BTK = BTK (UniProt Q06187)
CAMK2A = CAMK2A (UniProt Q9UQM7)
CAMK2G = CAMK2G (UniProt Q13555)
CDK10 = CDK10 (UniProt Q15131)
CDK2 = CDK2 (UniProt P24941)
CDK3 = CDK3 (UniProt Q00526)
CDK4 = CDK4 (UniProt P11802)
CDK5 = CDK5 (UniProt Q00535)
CDK6 = CDK6 (UniProt Q00534)

Compound | kinase-Nluc reporter destabilization hit call (ABL1) | kinase-Nluc reporter destabilization hit call (AKT1) | kinase-Nluc reporter destabilization hit call (ALK) | kinase-Nluc reporter destabilization hit call (ARAF) | kinase-Nluc reporter destabilization hit call (AURKA) | kinase-Nluc reporter destabilization hit call (AURKB) | kinase-Nluc reporter destabilization hit call (AURKC) | kinase-Nluc reporter destabilization hit call (BLK) | kinase-Nluc reporter destabilization hit call (BMX) | kinase-Nluc reporter destabilization hit call (BRAF) | kinase-Nluc reporter destabilization hit call (BRAF_V600E) | kinase-Nluc reporter destabilization hit call (BTK) | kinase-Nluc reporter destabilization hit call (CAMK2A) | kinase-Nluc reporter destabilization hit call (CAMK2G) | kinase-Nluc reporter destabilization hit call (CDK10) | kinase-Nluc reporter destabilization hit call (CDK2) | kinase-Nluc reporter destabilization hit call (CDK3) | kinase-Nluc reporter destabilization hit call (CDK4) | kinase-Nluc reporter destabilization hit call (CDK5) | kinase-Nluc reporter destabilization hit call (CDK6)
Cn1cnc2c(F)c(Nc3ccc(Br)cc3F)c(C(=O)NOCCO)cc21 [Binimetinib] (10 µM) | inactive: 0 | inactive: 0 | inactive: 0 | inactive: 0 | inactive: 0 | inactive: 0 | inactive: 0 | inactive: 0 | inactive: 0 | inactive: 0 | inactive: 0 | inactive: 0 | inactive: 0 | inactive: 0 | inactive: 0 | inactive: 0 | inactive: 0 | inactive: 0 | inactive: 0 | inactive: 0
CC(C)=CCC[C@](C)(O[C@@H]1O[C@H](CO[C@@H]2O[C@H](CO)[C@@H](O)[C@H](O)[C@H]2O)[C@@H](O)[C@H](O)[C@H]1O)[C@H]1CC[C@]2(C)[C@@H]1[C@H](O)C[C@@H]1[C@@]3(C)CC[C@H](O[C@@H]4O[C@H](CO)[C@@H](O)[C@H](O)[C@H]4O[C@@H]4O[C@H](CO)[C@@H](O)[C@H](O)[C@H]4O)C(C)(C)[C@@H]3CC[C@]12C [Ginsenoside Rb1] (10 µM) | inactive: 0 | inactive: 0 | inactive: 0 | inactive: 0 | inactive: 0 | inactive: 0 | inactive: 0 | inactive: 0 | inactive: 0 | inactive: 0 | inactive: 0 | inactive: 0 | inactive: 0 | inactive: 0 | inactive: 0 | inactive: 0 | inactive: 0 | inactive: 0 | inactive: 0 | inactive: 0
Cc1nc(Nc2cnn(C3CCNCC3)c2)nc2c1N(C)C(=O)c1cc3ccccc3cc1N2C (2.5 µM) | inactive: 0 | inactive: 0 | inactive: 0 | inactive: 0 | inactive: 0 | inactive: 0 | inactive: 0 | inactive: 0 | inactive: 0 | inactive: 0 | inactive: 0 | inactive: 0 | inactive: 0 | inactive: 0 | inactive: 0 | inactive: 0 | inactive: 0 | inactive: 0 | inactive: 0 | inactive: 0
N#Cc1cnc(Nc2cc(NC[C@H]3CNCCO3)c(C(F)(F)F)cn2)cn1 (10 µM) | inactive: 0 | inactive: 0 | inactive: 0 | inactive: 0 | inactive: 0 | inactive: 0 | inactive: 0 | inactive: 0 | inactive: 0 | inactive: 0 | inactive: 0 | inactive: 0 | inactive: 0 | inactive: 0 | inactive: 0 | inactive: 0 | inactive: 0 | inactive: 0 | inactive: 0 | inactive: 0
NC(=O)c1cnc(N[C@@H]2CCCC[C@@H]2N)nc1Nc1cccc(-n2nccn2)c1 (2.5 µM) | inactive: 0 | inactive: 0 | inactive: 0 | inactive: 0 | inactive: 0 | inactive: 0 | inactive: 0 | inactive: 0 | inactive: 0 | inactive: 0 | inactive: 0 | inactive: 0 | inactive: 0 | inactive: 0 | inactive: 0 | inactive: 0 | inactive: 0 | inactive: 0 | inactive: 0 | inactive: 0
Cc1ccc(C2CC(=O)NC(SCC(=O)Nc3nccs3)=C2C#N)cc1 (stereo not given) [Necrostatin-34] (10 µM) | inactive: 0 | inactive: 0 | inactive: 0 | inactive: 0 | inactive: 0 | inactive: 0 | inactive: 0 | inactive: 0 | inactive: 0 | inactive: 0 | inactive: 0 | inactive: 0 | inactive: 0 | inactive: 0 | inactive: 0 | inactive: 0 | inactive: 0 | inactive: 0 | inactive: 0 | inactive: 0
CCCCNc1ncc(C(=O)NCc2ccc(-n3ccnc3)cc2)c(NC2CCC(O)CC2)n1 (stereo not given) (10 µM) | active: 1 | inactive: 0 | inactive: 0 | inactive: 0 | inactive: 0 | inactive: 0 | inactive: 0 | inactive: 0 | inactive: 0 | inactive: 0 | inactive: 0 | inactive: 0 | inactive: 0 | inactive: 0 | inactive: 0 | inactive: 0 | inactive: 0 | inactive: 0 | inactive: 0 | inactive: 0
COc1cc2nnc(C(N)=O)c(Nc3ccc(C)cc3F)c2cc1N1CCN(CCO)CC1 (2.5 µM) | inactive: 0 | inactive: 0 | inactive: 0 | inactive: 0 | inactive: 0 | inactive: 0 | inactive: 0 | inactive: 0 | inactive: 0 | inactive: 0 | inactive: 0 | inactive: 0 | inactive: 0 | inactive: 0 | inactive: 0 | inactive: 0 | inactive: 0 | inactive: 0 | inactive: 0 | inactive: 0
CC(=O)O[C@@H]1[C@@H](OC(C)=O)[C@@H](O)[C@H](Oc2c(-c3ccc(O)cc3)oc3cc(O)cc(O)c3c2=O)O[C@H]1C (10 µM) | inactive: 0 | inactive: 0 | inactive: 0 | inactive: 0 | inactive: 0 | inactive: 0 | inactive: 0 | inactive: 0 | inactive: 0 | inactive: 0 | inactive: 0 | inactive: 0 | inactive: 0 | inactive: 0 | inactive: 0 | inactive: 0 | inactive: 0 | inactive: 0 | inactive: 0 | inactive: 0
Cc1nc(NC(=O)N2CCC[C@H]2C(N)=O)sc1-c1ccnc(C(C)(C)C(F)(F)F)c1 [Alpelisib] (2.5 µM) | inactive: 0 | inactive: 0 | inactive: 0 | inactive: 0 | inactive: 0 | inactive: 0 | inactive: 0 | inactive: 0 | inactive: 0 | inactive: 0 | inactive: 0 | inactive: 0 | inactive: 0 | inactive: 0 | inactive: 0 | inactive: 0 | inactive: 0 | inactive: 0 | inactive: 0 | inactive: 0
Cc1ccc2c(NS(=O)(=O)c3ccccc3Cl)cccc2c1Oc1ncccc1-c1ccnc(N[C@H]2CCCNC2)n1 (2.5 µM) | inactive: 0 | inactive: 0 | inactive: 0 | inactive: 0 | inactive: 0 | inactive: 0 | inactive: 0 | inactive: 0 | inactive: 0 | inactive: 0 | inactive: 0 | inactive: 0 | inactive: 0 | inactive: 0 | inactive: 0 | inactive: 0 | inactive: 0 | inactive: 0 | inactive: 0 | inactive: 0
CC(C)(Oc1ccc(Cl)cc1)C(=O)Nc1ccc(OCc2ccc(C#N)cc2)cc1 [AMPK activator 4] (10 µM) | inactive: 0 | inactive: 0 | inactive: 0 | inactive: 0 | inactive: 0 | inactive: 0 | inactive: 0 | inactive: 0 | inactive: 0 | inactive: 0 | inactive: 0 | inactive: 0 | inactive: 0 | inactive: 0 | inactive: 0 | inactive: 0 | inactive: 0 | inactive: 0 | inactive: 0 | inactive: 0
COc1cc(N2CCC(N3CCN(C)CC3)CC2)ccc1Nc1ncnc(Nc2ccccc2S(=O)(=O)C(C)C)n1 (10 µM) | inactive: 0 | inactive: 0 | inactive: 0 | inactive: 0 | inactive: 0 | inactive: 0 | inactive: 0 | inactive: 0 | inactive: 0 | inactive: 0 | inactive: 0 | inactive: 0 | inactive: 0 | inactive: 0 | inactive: 0 | inactive: 0 | inactive: 0 | inactive: 0 | inactive: 0 | inactive: 0
C=CC(=O)N1CCC(c2ccc(C(N)=O)c(-c3ccc(Oc4ccccc4)cc3)n2)CC1 [Orelabrutinib] (2.5 µM) | inactive: 0 | inactive: 0 | inactive: 0 | inactive: 0 | inactive: 0 | inactive: 0 | inactive: 0 | inactive: 0 | inactive: 0 | inactive: 0 | inactive: 0 | inactive: 0 | inactive: 0 | inactive: 0 | inactive: 0 | inactive: 0 | inactive: 0 | inactive: 0 | inactive: 0 | inactive: 0
Cc1cc(N2CCOCC2)ccc1Nc1nc(NC2CCCCC2)c2[nH]cnc2n1 (10 µM) | inactive: 0 | inactive: 0 | inactive: 0 | inactive: 0 | inactive: 0 | inactive: 0 | inactive: 0 | inactive: 0 | inactive: 0 | inactive: 0 | inactive: 0 | inactive: 0 | inactive: 0 | inactive: 0 | inactive: 0 | inactive: 0 | inactive: 0 | inactive: 0 | inactive: 0 | inactive: 0
Cn1cc(-c2nc(N[C@@H]3CCCC[C@@H]3N)c(F)c3c2C(=O)NC3)cn1 [TAK-659 (hydrochloride)] (2 µM) | inactive: 0 | inactive: 0 | inactive: 0 | inactive: 0 | inactive: 0 | inactive: 0 | inactive: 0 | inactive: 0 | inactive: 0 | inactive: 0 | inactive: 0 | inactive: 0 | inactive: 0 | inactive: 0 | inactive: 0 | inactive: 0 | inactive: 0 | inactive: 0 | inactive: 0 | inactive: 0
Cc1cc2c(F)c(Oc3ncnn4cc(OC[C@@H](C)OC(=O)[C@H](C)N)c(C)c34)ccc2[nH]1 [Brivanib (alaninate)] (10 µM) | inactive: 0 | inactive: 0 | inactive: 0 | inactive: 0 | inactive: 0 | inactive: 0 | inactive: 0 | inactive: 0 | inactive: 0 | inactive: 0 | inactive: 0 | inactive: 0 | inactive: 0 | inactive: 0 | inactive: 0 | inactive: 0 | inactive: 0 | inactive: 0 | inactive: 0 | inactive: 0
N#Cc1cc(-c2ccnc(Nc3ccc(N4CCOCC4)cc3)n2)ccc1OC1CCOCC1 (10 µM) | inactive: 0 | inactive: 0 | inactive: 0 | inactive: 0 | inactive: 0 | inactive: 0 | inactive: 0 | inactive: 0 | inactive: 0 | inactive: 0 | inactive: 0 | inactive: 0 | inactive: 0 | inactive: 0 | inactive: 0 | inactive: 0 | inactive: 0 | inactive: 0 | inactive: 0 | inactive: 0

Record cards, from the list above. Order of values: kinase-Nluc reporter destabilization hit call (ABL1)	kinase-Nluc reporter destabilization hit call (AKT1)	kinase-Nluc reporter destabilization hit call (ALK)	kinase-Nluc reporter destabilization hit call (ARAF)	kinase-Nluc reporter destabilization hit call (AURKA)	kinase-Nluc reporter destabilization hit call (AURKB)	kinase-Nluc reporter destabilization hit call (AURKC)	kinase-Nluc reporter destabilization hit call (BLK)	kinase-Nluc reporter destabilization hit call (BMX)	kinase-Nluc reporter destabilization hit call (BRAF)	kinase-Nluc reporter destabilization hit call (BRAF_V600E)	kinase-Nluc reporter destabilization hit call (BTK)	kinase-Nluc reporter destabilization hit call (CAMK2A)	kinase-Nluc reporter destabilization hit call (CAMK2G)	kinase-Nluc reporter destabilization hit call (CDK10)	kinase-Nluc reporter destabilization hit call (CDK2)	kinase-Nluc reporter destabilization hit call (CDK3)	kinase-Nluc reporter destabilization hit call (CDK4)	kinase-Nluc reporter destabilization hit call (CDK5)	kinase-Nluc reporter destabilization hit call (CDK6)
`Cc1nc(Nc2cnn(C3CCNCC3)c2)nc2c1N(C)C(=O)c1cc3ccccc3cc1N2C` (2.5 µM) is listed as inactive: 0	inactive: 0	inactive: 0	inactive: 0	inactive: 0	inactive: 0	inactive: 0	inactive: 0	inactive: 0	inactive: 0	inactive: 0	inactive: 0	inactive: 0	inactive: 0	inactive: 0	inactive: 0	inactive: 0	inactive: 0	inactive: 0	inactive: 0
`CC(C)(Oc1ccc(Cl)cc1)C(=O)Nc1ccc(OCc2ccc(C#N)cc2)cc1` [AMPK activator 4] (10 µM) is listed as inactive: 0	inactive: 0	inactive: 0	inactive: 0	inactive: 0	inactive: 0	inactive: 0	inactive: 0	inactive: 0	inactive: 0	inactive: 0	inactive: 0	inactive: 0	inactive: 0	inactive: 0	inactive: 0	inactive: 0	inactive: 0	inactive: 0	inactive: 0
